In PMC10938814:
Like-named read-outs stand apart in the source and are kept apart here. Results are given in words; binding and its absence hold for the method and conditions named. Binding seen in cells or lysates may run through a third protein. Some entries that bind do so weakly or less than the wild type. For some assays here: Tags and fused reporters may be left off the sequences shown.

Protein sequences, listed by entry. Tags and fused reporters are not part of them.
UniProt P38606: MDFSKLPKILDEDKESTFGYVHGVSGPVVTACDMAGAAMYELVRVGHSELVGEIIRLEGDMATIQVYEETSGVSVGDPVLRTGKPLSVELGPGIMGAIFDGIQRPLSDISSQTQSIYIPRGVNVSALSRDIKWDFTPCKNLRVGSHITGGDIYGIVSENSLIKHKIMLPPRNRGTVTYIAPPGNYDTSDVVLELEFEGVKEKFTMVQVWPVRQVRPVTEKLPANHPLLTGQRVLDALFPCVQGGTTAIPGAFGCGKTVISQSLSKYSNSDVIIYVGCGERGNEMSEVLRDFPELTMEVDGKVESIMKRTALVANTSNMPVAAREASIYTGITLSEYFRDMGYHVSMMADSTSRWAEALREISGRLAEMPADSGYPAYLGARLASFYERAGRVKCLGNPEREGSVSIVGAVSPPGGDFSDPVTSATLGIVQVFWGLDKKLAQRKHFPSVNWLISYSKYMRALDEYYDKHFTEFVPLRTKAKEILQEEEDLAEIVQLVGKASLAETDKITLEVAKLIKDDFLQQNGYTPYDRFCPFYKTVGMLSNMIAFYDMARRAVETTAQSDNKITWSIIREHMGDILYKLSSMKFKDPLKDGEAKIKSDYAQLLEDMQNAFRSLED
UniProt P50516: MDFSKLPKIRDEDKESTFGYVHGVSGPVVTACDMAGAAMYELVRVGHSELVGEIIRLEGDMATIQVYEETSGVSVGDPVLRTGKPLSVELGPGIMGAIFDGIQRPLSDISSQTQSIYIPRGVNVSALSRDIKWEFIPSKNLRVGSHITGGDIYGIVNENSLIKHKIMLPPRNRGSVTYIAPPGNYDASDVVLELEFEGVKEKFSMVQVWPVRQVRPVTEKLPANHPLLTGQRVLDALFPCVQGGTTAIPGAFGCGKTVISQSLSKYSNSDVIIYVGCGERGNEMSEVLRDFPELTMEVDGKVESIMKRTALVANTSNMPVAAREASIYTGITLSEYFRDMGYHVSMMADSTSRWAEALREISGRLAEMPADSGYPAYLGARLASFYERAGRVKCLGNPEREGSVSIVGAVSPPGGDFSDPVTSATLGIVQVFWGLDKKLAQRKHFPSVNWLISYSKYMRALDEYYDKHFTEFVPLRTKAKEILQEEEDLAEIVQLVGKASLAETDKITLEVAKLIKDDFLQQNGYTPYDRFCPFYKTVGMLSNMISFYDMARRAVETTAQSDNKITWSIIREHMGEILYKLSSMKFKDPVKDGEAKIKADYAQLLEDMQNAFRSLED
UniProt P11142: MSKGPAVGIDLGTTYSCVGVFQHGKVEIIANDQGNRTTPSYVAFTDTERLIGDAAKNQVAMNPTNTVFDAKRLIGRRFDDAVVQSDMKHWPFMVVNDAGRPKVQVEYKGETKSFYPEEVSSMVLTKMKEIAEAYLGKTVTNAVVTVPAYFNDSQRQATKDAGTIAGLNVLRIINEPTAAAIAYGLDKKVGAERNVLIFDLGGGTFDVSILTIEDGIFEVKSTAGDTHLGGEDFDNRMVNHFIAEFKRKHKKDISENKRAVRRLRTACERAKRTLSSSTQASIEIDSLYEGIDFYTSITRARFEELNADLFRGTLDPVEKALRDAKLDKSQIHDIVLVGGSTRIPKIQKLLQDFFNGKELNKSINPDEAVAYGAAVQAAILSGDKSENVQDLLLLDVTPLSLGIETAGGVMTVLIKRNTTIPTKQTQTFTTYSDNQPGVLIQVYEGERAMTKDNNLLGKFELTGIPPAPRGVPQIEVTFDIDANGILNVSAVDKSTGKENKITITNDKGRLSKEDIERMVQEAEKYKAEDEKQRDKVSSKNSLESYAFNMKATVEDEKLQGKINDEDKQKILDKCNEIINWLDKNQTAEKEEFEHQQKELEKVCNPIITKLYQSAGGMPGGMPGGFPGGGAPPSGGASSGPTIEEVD

What was measured:
[1] = biological target: T1, FLAG-Fbxo9 (HEK293T) (mouse) (UniProt Q8BK06); experiment: co-IP; HEK293T cells transfected; FLAG-tagged partner precipitated with anti-FLAG beads, bound HA-tagged partner (or endogenous ATP6V1A, Fig. 2G) detected; NP40 lysis buffer, 1 h at room temperature, five washes with TBST
T1 sequence: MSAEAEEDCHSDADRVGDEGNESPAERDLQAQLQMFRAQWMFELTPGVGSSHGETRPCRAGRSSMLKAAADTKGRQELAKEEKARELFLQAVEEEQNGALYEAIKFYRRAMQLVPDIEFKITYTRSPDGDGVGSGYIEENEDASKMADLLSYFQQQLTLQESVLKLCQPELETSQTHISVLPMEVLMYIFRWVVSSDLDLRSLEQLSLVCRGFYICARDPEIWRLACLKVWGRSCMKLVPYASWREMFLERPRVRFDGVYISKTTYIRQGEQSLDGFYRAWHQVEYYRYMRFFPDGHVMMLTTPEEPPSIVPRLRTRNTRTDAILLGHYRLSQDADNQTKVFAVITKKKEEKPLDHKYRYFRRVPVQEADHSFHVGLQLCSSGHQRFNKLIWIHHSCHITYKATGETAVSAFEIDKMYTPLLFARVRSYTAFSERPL

[2] = biological target: endogenous ATP6V1A (human (endogenous in HEK293T and H1299)) (UniProt P38606); experiment: co-IP; endogenous proteins in H1299 cells (control and FBXO9-knockout; interaction inhibited by the knockout); anti-ATP6V1A antibody, bound HSPA8 detected with anti-HSPA8
[3] = biological target: full-length HA-tagged ATP6V1A (FL) (human) (UniProt P38606); experiment: co-IP; HEK293T cells co-transfected; HA-tagged partner precipitated with anti-HA beads, bound FLAG-tagged partner detected with anti-FLAG; NP40 lysis buffer, 1 h at room temperature, five washes with TBST
[4] = biological target: full-length HA-tagged ATP6V1A (FL) (human) (UniProt P38606); experiment: as above; remark: listed apart in the source
[5] = biological target: HA-Atp6v1a (HEK293T) (mouse) (UniProt P50516); experiment: as above

Q: For “HA-Atp6v1a (HEK293T) (from UniProt P50516 1-617)”, which binding [1] is on record?
A: Its binding is “binds”.

Q: With “endogenous HSPA8 (from UniProt P11142 1-646)” as the molecule, how does the binding [2] read?
A: The binding was “binds”.

Q: For “FLAG-HSPA8 (full-length, FL) (from UniProt P11142 1-646)”, which binding [3] is on record?
A: Its binding is “binds”.

B1: full-length FLAG-tagged FBXO9 (FL) (protein, UniProt Q9UK97 1-447)
chain: MPDIIWVFPPQAEAEEDCHSDTVRADDDEENESPAETDLQAQLQMFRAQWMFELAPGVSSSNLENRPCRAARGSLQKTSADTKGKQEQAKEEKARELFLKAVEEEQNGALYEAIKFYRRAMQLVPDIEFKITYTRSPDGDGVGNSYIEDNDDDSKMADLLSYFQQQLTFQESVLKLCQPELESSQIHISVLPMEVLMYIFRWVVSSDLDLRSLEQLSLVCRGFYICARDPEIWRLACLKVWGRSCIKLVPYTSWREMFLERPRVRFDGVYISKTTYIRQGEQSLDGFYRAWHQVEYYRYIRFFPDGHVMMLTTPEEPQSIVPRLRTRNTRTDAILLGHYRLSQDTDNQTKVFAVITKKKEEKPLDYKYRYFRRVPVQEADQSFHVGLQLCSSGHQRFNKLIWIHHSCHITYKSTGETAVSAFEIDKMYTPLFFARVRSYTAFSERPL
Q: For B1, which binding [4] is on record?
A: The binding was “binds”.

B2: FLAG-Fbxo9 (HEK293T) (protein, UniProt Q8BK06 1-437)
chain: T1 sequence
Q: How did the binding [5] turn out when B2 was run?
A: Its binding is “binds”.
